Reference: ChEMBL document CHEMBL1687827, “Profiling the Aspergillus fumigatus proteome in response to caspofungin” (2011)
Further values from the same series stand in other lists.

Tests used:
Type in all cases: functional
[1] = system: Aspergillus fumigatus; assay: Induction of change in ribosomal protein L14 protein level in iTRAQ114 labelled cell wall fraction of drug-susceptible Aspergillus fumigatus KU80 delta-akuB at 0.12 ug/ml after 24 hrs in YPD medium by MS (MS/MS) analysis relative to control
[2] = system: Aspergillus fumigatus; assay: Induction of change in 40S ribosomal protein S10b protein level in iTRAQ114 labelled cell wall fraction of drug-resistant Aspergillus fumigatus EMFR-S678P at 0.12 ug/ml after 24 hrs in YPD medium by MS (MS/MS) analysis relative to control
[3] = system: Aspergillus fumigatus; assay: Induction of change in hypothetical protein level in iTRAQ114 labelled secreted fraction of drug-resistant Aspergillus fumigatus EMFR-S678P at 0.12 ug/ml after 24 hrs in YPD medium by MS (MS/MS) analysis relative to control
[4] = system: Aspergillus fumigatus; assay: Induction of change in ribosomal protein S14.e gene expression in drug-susceptible Aspergillus fumigatus KU80 delta-akuB at 0.12 ug/ml after 24 hrs in YPD medium by microarray analysis relative to control
[5] = system: Aspergillus fumigatus; assay: Induction of change in ATP citrate lyase subunit (Acl), putative protein level in iTRAQ114 labelled secreted fraction of drug-susceptible Aspergillus fumigatus KU80 delta-akuB at 0.12 ug/ml after 24 hrs in YPD medium by MS (MS/MS) analysis relative to control
[6] = system: Aspergillus fumigatus; assay: Induction of change in ubiquitin (UbiC), putative protein level in iTRAQ114 labelled secreted fraction of drug-susceptible Aspergillus fumigatus KU80 delta-akuB at 0.12 ug/ml after 24 hrs in YPD medium by MS (MS/MS) analysis relative to control
[7] = system: Aspergillus fumigatus; assay: Induction of change in alkaline serine protease gene expression in drug-susceptible Aspergillus fumigatus KU80 delta-akuB at 0.12 ug/ml after 24 hrs in YPD medium by microarray analysis relative to control
[8] = system: Aspergillus fumigatus; assay: Induction of change in ribosomal protein L14 gene expression in drug-susceptible Aspergillus fumigatus KU80 delta-akuB at 0.12 ug/ml after 24 hrs in YPD medium by microarray analysis relative to control
[9] = system: Aspergillus fumigatus; assay: Induction of change in carbonic anhydrase family gene expression in drug-susceptible Aspergillus fumigatus KU80 delta-akuB at 0.12 ug/ml after 48 hrs in YPD medium by microarray analysis relative to control
[10] = system: Aspergillus fumigatus; assay: Induction of change in secreted dipeptidyl peptidase DppV protein level in iTRAQ-118 labelled cell wall fraction of drug-susceptible Aspergillus fumigatus KU80 delta-akuB at 0.12 ug/ml after 24 hrs in YPD medium by MS (MS/MS) analysis relative to control
[11] = system: Aspergillus fumigatus; assay: Induction of change in 60S ribosomal protein L1 gene expression in drug-susceptible Aspergillus fumigatus KU80 delta-akuB at 0.12 ug/ml after 24 hrs in YPD medium by microarray analysis relative to control
[12] = system: Aspergillus fumigatus; assay: Induction of change in mitochondrial hypoxia responsive domain protein level in iTRAQ-116 labelled secreted fraction of drug-resistant Aspergillus fumigatus EMFR-S678P at 0.12 ug/ml after 48 hrs in YPD medium by MS (MS/MS) analysis relative to control
[13] = system: Aspergillus fumigatus; assay: Induction of change in aconitate hydratase, mitochondrial gene expression in drug-susceptible Aspergillus fumigatus KU80 delta-akuB at 0.12 ug/ml after 48 hrs in YPD medium by microarray analysis relative to control
[14] = system: Aspergillus fumigatus; assay: Induction of change in Ribosomal protein L31e gene expression in drug-susceptible Aspergillus fumigatus KU80 delta-akuB at 0.12 ug/ml after 24 hrs in YPD medium by microarray analysis relative to control
[15] = system: Aspergillus fumigatus; assay: Induction of change in transaldolase protein level in iTRAQ-116 labelled secreted fraction of drug-resistant Aspergillus fumigatus EMFR-S678P at 0.12 ug/ml after 48 hrs in YPD medium by MS (MS/MS) analysis relative to control
[16] = system: Aspergillus fumigatus; assay: Induction of change in 40S ribosomal protein S9 protein level in iTRAQ114 labelled cell wall fraction of drug-resistant Aspergillus fumigatus EMFR-S678P at 0.12 ug/ml after 24 hrs in YPD medium by MS (MS/MS) analysis relative to control
[17] = system: Aspergillus fumigatus; assay: Induction of change in GPI-anchored cell wall organization protein Ecm33 protein level in iTRAQ-116 labelled cell wall fraction of drug-susceptible Aspergillus fumigatus KU80 delta-akuB at 0.12 ug/ml after 48 hrs in YPD medium by MS (MS/MS) analysis relative to control
[18] = system: Aspergillus fumigatus; assay: Induction of change in Ribosomal protein S28e gene expression in drug-susceptible Aspergillus fumigatus KU80 delta-akuB at 0.12 ug/ml after 24 hrs in YPD medium by microarray analysis relative to control
[19] = system: Aspergillus fumigatus; assay: Induction of change in coenzyme A transferase PsecoA gene expression in drug-susceptible Aspergillus fumigatus KU80 delta-akuB at 0.12 ug/ml after 48 hrs in YPD medium by microarray analysis relative to control
[20] = system: Aspergillus fumigatus; assay: Induction of change in Mn superoxide dismutase MnSOD protein level in iTRAQ-116 labelled secreted fraction of drug-resistant Aspergillus fumigatus EMFR-S678P at 0.12 ug/ml after 48 hrs in YPD medium by MS (MS/MS) analysis relative to control
[21] = system: Aspergillus fumigatus; assay: Induction of change in Iron-sulfur cluster assembly accessory protein subfamily, putative gene expression in drug-susceptible Aspergillus fumigatus KU80 delta-akuB at 0.12 ug/ml after 48 hrs in YPD medium by microarray analysis relative to control
[22] = system: Aspergillus fumigatus; assay: Induction of change in ThiJ/PfpI family protein level in iTRAQ-116 labelled secreted fraction of drug-resistant Aspergillus fumigatus EMFR-S678P at 0.12 ug/ml after 48 hrs in YPD medium by MS (MS/MS) analysis relative to control
[23] = system: Aspergillus fumigatus; assay: Induction of change in Ran-specific GTPase-activating protein 1, putative protein level in iTRAQ-116 labelled secreted fraction of drug-resistant Aspergillus fumigatus EMFR-S678P at 0.12 ug/ml after 48 hrs in YPD medium by MS (MS/MS) analysis relative to control
[24] = system: Aspergillus fumigatus; assay: Induction of change in CipC-like antibiotic response protein, putative protein level in iTRAQ-118 labelled cell wall fraction of drug-susceptible Aspergillus fumigatus KU80 delta-akuB at 0.12 ug/ml after 24 hrs in YPD medium by MS (MS/MS) analysis relative to control
[25] = system: Aspergillus fumigatus; assay: Induction of change in FKBP-type peptidyl-prolyl isomerase, putative protein level in iTRAQ-116 labelled secreted fraction of drug-susceptible Aspergillus fumigatus KU80 delta-akuB at 0.12 ug/ml after 48 hrs in YPD medium by MS (MS/MS) analysis relative to control
[26] = system: Aspergillus fumigatus; assay: Induction of change in 60S ribosomal protein L22, putative protein level in iTRAQ114 labelled cell wall fraction of drug-resistant Aspergillus fumigatus EMFR-S678P at 0.12 ug/ml after 24 hrs in YPD medium by MS (MS/MS) analysis relative to control

With CC[C@H](C)C[C@H](C)CCCCCCCCC(=O)N[C@H]1C[C@@H](O)[C@@H](NCCN)NC(=O)[C@@H]2[C@@H](O)CCN2C(=O)[C@H]([C@H](O)CCN)NC(=O)[C@H]([C@H](O)[C@@H](O)c2ccc(O)cc2)NC(=O)[C@@H]2C[C@@H](O)CN2C(=O)[C@H]([C@@H](C)O)NC1=O [CASPOFUNGIN] the “fold change (FC)” value [1] was 1.6, the “fold change (FC)” value [2] was 1.07 and the “fold change (FC)” value [3] was -1.07. For the same molecule, the “fold change (FC)” value [4] was 3.7, the “fold change (FC)” value [5] was 3.5 and the “fold change (FC)” value [6] was -1.9. The “fold change (FC)” value [7] was 5.5, the “fold change (FC)” value [8] was 4.7 and the “fold change (FC)” value [9] was -4.8. For the same molecule, the “fold change (FC)” value [10] was -2.3, the “fold change (FC)” value [11] was 3.3 and the “fold change (FC)” value [12] was -1.07. For the same molecule, the “fold change (FC)” value [13] was -2.4, the “fold change (FC)” value [14] was 6.8 and the “fold change (FC)” value [15] was -1.07. For the same molecule, the “fold change (FC)” value [16] was -1.07, the “fold change (FC)” value [17] was 2.3 and the “fold change (FC)” value [18] was 3.5. For the same molecule, the “fold change (FC)” value [19] was -4.4, the “fold change (FC)” value [20] was -1.52 and the “fold change (FC)” value [21] was 5.7. For the same molecule, the “fold change (FC)” value [22] was 1.07, the “fold change (FC)” value [23] was -1.07 and the “fold change (FC)” value [24] was -3.2. The “fold change (FC)” value [25] was -13.9 and the “fold change (FC)” value [26] was 1.07.
